Test [1] has as its target T1, NADPH oxidase 2 (NOX2), mouse, endogenous in RAW 264.7 macrophages (mouse (endogenous in RAW 264.7)) (UniProt Q61093).
T1 sequence: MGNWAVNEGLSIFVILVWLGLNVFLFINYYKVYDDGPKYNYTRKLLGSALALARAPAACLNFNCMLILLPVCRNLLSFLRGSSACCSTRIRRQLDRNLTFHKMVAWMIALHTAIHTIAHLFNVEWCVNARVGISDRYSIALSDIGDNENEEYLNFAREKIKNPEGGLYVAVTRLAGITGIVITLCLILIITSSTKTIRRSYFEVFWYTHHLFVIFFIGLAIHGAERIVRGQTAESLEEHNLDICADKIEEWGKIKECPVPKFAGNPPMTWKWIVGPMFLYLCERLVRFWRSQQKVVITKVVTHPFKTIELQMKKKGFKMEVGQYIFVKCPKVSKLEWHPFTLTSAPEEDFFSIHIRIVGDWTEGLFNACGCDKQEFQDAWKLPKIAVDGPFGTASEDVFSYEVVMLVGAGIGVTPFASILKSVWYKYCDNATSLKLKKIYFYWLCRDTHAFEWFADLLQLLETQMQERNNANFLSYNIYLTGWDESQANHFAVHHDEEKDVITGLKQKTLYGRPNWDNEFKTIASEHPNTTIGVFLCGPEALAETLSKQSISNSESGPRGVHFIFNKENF
In words: co-IP; RAW 264.7 cells stimulated with 200 uM palmitate for 1 h; immunoprecipitation with 10 ug anti-NOX2 from cytosolic fractions, protein A/G agarose, blot for TLR4.

By UniProt entry, the sequences of proteins in these tests, tags left out. Residues count along the entry.
UniProt Q9QUK6, residues 26-835: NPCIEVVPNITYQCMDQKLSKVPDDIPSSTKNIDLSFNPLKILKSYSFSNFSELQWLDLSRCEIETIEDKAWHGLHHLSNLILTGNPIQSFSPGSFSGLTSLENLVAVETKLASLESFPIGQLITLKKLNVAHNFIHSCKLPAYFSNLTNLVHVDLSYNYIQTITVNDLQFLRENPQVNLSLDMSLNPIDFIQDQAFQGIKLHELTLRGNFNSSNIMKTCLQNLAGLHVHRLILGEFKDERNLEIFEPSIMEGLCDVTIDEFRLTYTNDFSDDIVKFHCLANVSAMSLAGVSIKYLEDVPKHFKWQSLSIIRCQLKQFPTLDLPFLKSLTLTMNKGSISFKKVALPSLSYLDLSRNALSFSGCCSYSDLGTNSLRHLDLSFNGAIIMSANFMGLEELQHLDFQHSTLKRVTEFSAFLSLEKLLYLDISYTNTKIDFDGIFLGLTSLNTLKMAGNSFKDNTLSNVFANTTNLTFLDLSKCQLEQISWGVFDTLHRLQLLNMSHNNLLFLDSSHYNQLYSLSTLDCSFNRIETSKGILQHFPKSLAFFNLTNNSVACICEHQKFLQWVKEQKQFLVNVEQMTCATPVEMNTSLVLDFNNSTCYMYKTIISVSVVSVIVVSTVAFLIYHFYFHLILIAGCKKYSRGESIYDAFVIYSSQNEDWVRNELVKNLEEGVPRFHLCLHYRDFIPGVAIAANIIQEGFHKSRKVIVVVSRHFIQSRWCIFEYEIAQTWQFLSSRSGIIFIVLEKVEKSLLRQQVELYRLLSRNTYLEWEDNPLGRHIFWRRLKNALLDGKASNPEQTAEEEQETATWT
UniProt O00206, residues 27-631: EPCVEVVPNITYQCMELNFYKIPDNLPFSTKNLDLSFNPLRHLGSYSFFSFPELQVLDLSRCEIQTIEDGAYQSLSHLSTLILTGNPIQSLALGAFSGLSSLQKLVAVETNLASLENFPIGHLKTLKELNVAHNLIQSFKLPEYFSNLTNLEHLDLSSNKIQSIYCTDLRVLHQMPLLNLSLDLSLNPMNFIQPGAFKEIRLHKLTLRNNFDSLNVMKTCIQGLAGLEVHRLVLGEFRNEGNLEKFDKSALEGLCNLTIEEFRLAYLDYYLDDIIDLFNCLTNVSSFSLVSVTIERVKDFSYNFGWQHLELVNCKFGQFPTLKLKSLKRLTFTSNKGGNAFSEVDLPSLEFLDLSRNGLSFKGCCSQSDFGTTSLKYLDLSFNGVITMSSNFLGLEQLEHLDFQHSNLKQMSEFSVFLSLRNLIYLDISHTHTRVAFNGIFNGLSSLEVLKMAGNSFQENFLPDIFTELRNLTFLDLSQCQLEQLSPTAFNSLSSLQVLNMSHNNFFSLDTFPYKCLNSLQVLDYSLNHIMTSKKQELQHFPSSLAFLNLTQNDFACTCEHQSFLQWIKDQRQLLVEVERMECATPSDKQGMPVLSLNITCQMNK

The target of test [2] is T2, Human MD2 (amino acids 19-160) (human) (UniProt Q9Y6Y9).
T2 sequence: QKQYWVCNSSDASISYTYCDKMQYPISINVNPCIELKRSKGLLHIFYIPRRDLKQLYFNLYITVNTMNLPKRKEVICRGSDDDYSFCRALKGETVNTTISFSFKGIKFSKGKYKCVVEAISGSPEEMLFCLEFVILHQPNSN
In words: SEC; Superdex 200; hTLR4–MD2 complex alone, co-expressed in High Five cells and co-purified by the protein A tag on MD2 (tag cleaved); elution against standard proteins; both purified.

Results are given in words; binding and its absence hold for the method and conditions named. For some assays here: In cells and extracts the contact can be indirect. Some binding calls cover weakened binding; strength is not graded here.

Consider “Toll-like receptor 4 (TLR4), mouse, endogenous in RAW 264.7 macrophages (from UniProt Q9QUK6 26-835)”, for which the binding result in test [1] is listed as “no binding”.
Turning to “Human TLR4 (amino acids 27-631) (from UniProt O00206 27-631) (domain or fragment)”, in test [2], the binding entry is “binds”.

These data come from publication PMC5740170.
